PubChem BioAssay AID1259290, Sanger Institute | 2017

Screen: 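Identify kinases needed for colorectal cancer cell survival, with or without anchor drugs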 (primary screen)
System: human SNUC1 colorectal cancer cells
Reagent: siRNA pool against human genes
Treatment: anchor drugs BYL719 1 µM, cetuximab 5 µg/ml or trametinib 10 nM, or DMSO vehicle alone
Detection: 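Cell viability relative to a non-targeting siRNA control, replicate-averaged, as robust z-score for knock-down alone, plus a synergy score for each anchor drug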
Scale: viability z-score, siRNA alone: higher = more viable cells; low values mean essential gene; viability vs control, siRNA alone: higher = more viable cells; synergy score with BYL719 and synergy score with Cetuximab: higher = stronger synthetic lethal effect with drug
Active means: 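a knock-down without drug scoring a robust z under -3 counts as essential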
Meaning of the calls: active = essential: knock-down alone cut viability (z below -3); inactive = no clear viability loss with knock-down alone
In all, the deposit lists 794 reagents; this is a part drawn at random. 9 of all reagents (1.1%) count as active. 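Calls rest on knock-down alone, not drug synergy; synergy above 0.15 was grouped apart and does not affect calls.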 Viability is capped at 1. Not all columns of the deposit are shown. The record does not give: the amount of reagent, the time to read-out.

Target gene,"viability z-score, siRNA alone","viability vs control, siRNA alone",synergy score with BYL719,synergy score with Cetuximab,call
TEC (tec protein tyrosine kinase),0.936,1,-0.0381,-0.0193,inactive
JAK1 (Janus kinase 1),0.473,0.958,-0.232,-0.0846,inactive
BTK (Bruton tyrosine kinase),0.936,1,-0.181,-0.0447,inactive
AK5 (adenylate kinase 5),-0.56,0.865,-0.14,0.0506,inactive
IKBKB (inhibitor of nuclear factor kappa B kinase subunit beta),-0.853,0.839,-0.241,-0.195,inactive
STK26 (serine/threonine kinase 26),0.936,1,-0.108,0.0401,inactive
MAPK4 (mitogen-activated protein kinase 4),0.936,1,0.0894,0.064,inactive
CSNK1A1 (casein kinase 1 alpha 1),-0.711,0.852,-0.222,-0.00953,inactive
APC (APC regulator of Wnt signaling pathway),-0.407,0.879,-0.149,-0.0638,inactive
MVK (mevalonate kinase),-1.18,0.81,-0.199,-0.0205,inactive
WNK1 (WNK lysine deficient protein kinase 1),0.936,1,-0.198,-0.0447,inactive
MYLK (myosin light chain kinase),-0.376,0.882,-0.223,-0.157,inactive
CDKN1B (cyclin dependent kinase inhibitor 1B),0.636,0.973,-0.0576,0.0496,inactive
"GUCY2F (guanylate cyclase 2F, retinal)",0.936,1,-0.188,-0.0447,inactive
BMPR2 (bone morphogenetic protein receptor type 2),-0.0896,0.908,-0.109,0.111,inactive
EPHA6 (EPH receptor A6),0.936,1,0.137,0.0203,inactive
COASY (Coenzyme A synthase),-0.974,0.828,0.0481,0.119,inactive
CSNK2A1 (casein kinase 2 alpha 1),0.936,1,-0.175,-0.0447,inactive
ADPGK (ADP dependent glucokinase),-0.586,0.863,0.0301,-0.0641,inactive
CIT (citron rho-interacting serine/threonine kinase),-0.385,0.881,0.00736,-0.0717,inactive
ERBB2 (erb-b2 receptor tyrosine kinase 2),-0.214,0.896,-0.281,-0.00819,inactive
ULK2 (unc-51 like autophagy activating kinase 2),0.936,1,-0.198,0.0272,inactive
STKLD1 (serine/threonine kinase like domain containing 1),0.936,1,-0.0239,0.0455,inactive
ACVR1C (activin A receptor type 1C),0.936,1,-0.125,-0.0447,inactive
PCK1 (phosphoenolpyruvate carboxykinase 1),0.936,1,0.146,-0.0109,inactive
RIOK3 (RIO kinase 3),-3.03,0.643,-0.136,-0.206,active
PRKCZ (protein kinase C zeta),0.215,0.935,0.0271,-0.0333,inactive
CAMK4 (calcium/calmodulin dependent protein kinase IV),0.716,0.98,-0.214,0.0883,inactive
CPNE3 (copine 3),-0.114,0.905,-0.224,0.019,inactive
CDK10 (cyclin dependent kinase 10),-0.7,0.853,-0.0611,-0.0206,inactive
PASK (PAS domain containing serine/threonine kinase),0.936,1,0.0173,-0.0447,inactive
GAK (cyclin G associated kinase),-1.22,0.806,-0.167,0.109,inactive
PRKAR1B (protein kinase cAMP-dependent type I regulatory subunit beta),0.936,1,-0.111,0.0599,inactive
ALPK3 (alpha kinase 3),-1.12,0.815,-0.0899,-0.00369,inactive
MAP2K4 (mitogen-activated protein kinase kinase 4),0.936,1,-0.129,-0.0447,inactive
TSKS (testis specific serine kinase substrate),0.936,1,-0.198,-0.0447,inactive
BRSK1 (BR serine/threonine kinase 1),0.596,0.969,-0.202,-0.0277,inactive
MAP3K5 (mitogen-activated protein kinase kinase kinase 5),0.251,0.938,-0.146,0.0451,inactive
BMPR1B (bone morphogenetic protein receptor type 1B),-0.295,0.889,-0.218,-0.0678,inactive
DNMT3A (DNA methyltransferase 3 alpha),-2.81,0.662,-0.0816,0.000674,inactive
SPEG (striated muscle enriched protein kinase),0.936,1,-0.141,-0.0447,inactive
CLK3 (CDC like kinase 3),0.458,0.957,-0.233,-0.0859,inactive
MAP3K10 (mitogen-activated protein kinase kinase kinase 10),0.464,0.957,-0.159,-0.0854,inactive
MAP3K9 (mitogen-activated protein kinase kinase kinase 9),0.0659,0.922,-0.0925,0.0164,inactive
RSKR (ribosomal protein S6 kinase related),0.936,1,0.0135,0.0145,inactive
EPHA10 (EPH receptor A10),-0.465,0.874,-0.0846,-0.0418,inactive
PTK7 (protein tyrosine kinase 7 (inactive)),-1.8,0.753,-0.138,0.073,inactive
MAP2K3 (mitogen-activated protein kinase kinase 3),-0.149,0.902,-0.125,-0.138,inactive
CKB (creatine kinase B),0.347,0.947,-0.0561,0.0476,inactive
"NRAS (NRAS proto-oncogene, GTPase)",0.936,1,-0.186,-0.0447,inactive
